What was measured:
dog drinking behavior = dog drinking behavior with bowls of various concentrations of molecular iodine in water (Example 2); format: in vivo, dogs; details: for water consumed from bowl: three dogs, repeated 3 times
drinking acceptance = experiment: preliminary experiments on acceptance of elemental iodine in dog drinking water; format: in vivo, dogs

For `II` [molecular iodine], the “water consumed from bowl” value (dog drinking behavior; bowl 2, 0.1 microgram/mL) was “All the water”, the “water consumed from bowl” value (dog drinking behavior; bowl 3, 0.5 microgram/mL) was “All the water” and the “water consumed from bowl” value (dog drinking behavior; bowl 4, 1.0 microgram/mL) was “All the water”. The “water consumed from bowl” value (dog drinking behavior; bowl 5, 2.0 microgram/mL) was “no water was consumed”, the “water consumed from bowl” value (dog drinking behavior; bowl 6, 4.0 microgram/mL) was “no water was consumed” and the “water consumed from bowl” value (dog drinking behavior; bowl 7, 8.0 microgram/mL) was “no water was consumed”. The “greatest concentration that dogs will freely drink without restriction” value (dog drinking behavior; in water) was 1.0 microgram/mL, the “rejection by test dogs” value (drinking acceptance; 0.05 micrograms/mL) was “never rejected” and the “rejection by test dogs” value (drinking acceptance; 0.1 micrograms/mL) was “never rejected”. The “rejection by test dogs” value (drinking acceptance; 0.5 micrograms/mL) was “never rejected”, the “drinking of iodine in dog drinking water” value (drinking acceptance; concentration too high e.g., 5 micrograms/mL) was “would not drink” and the “rejection of drinking by dogs” value (drinking acceptance; concentrations above 2 micrograms/mL) was “often rejected”. For the same compound, the “approximate limit of concentration in water that canines can detect” value (drinking acceptance; dog, in vivo) was “about 1.0 micrograms per milliliter” and the “concentration of elemental iodine in drinking water preferred by dogs” value (drinking acceptance; evaluated 0.5, 1.0, 2.0, 3, 5, 10, 15 and 20 micrograms/mL) was “below 2 micrograms/mL”.
